In patent US20160368919A1, “NOVEL PYRIDINE PYRAZINONES AS BET-FAMILY BROMODOMAIN INHIBITORS” (Pfizer Inc., priority 2015, published 2016):

Tests used:
LnCaP cells, AR(+) = assay: CRPC cell proliferation assay (CellTiter-Glo), LnCaP; format: cell-based; details: Homo sapiens, CTG at 96h
Method: (§1) Castrate-Resistant Prostate Cancer (CRPC) Cell Proliferation Assay • Cells were seeded into 96-well plates at 2,000-10,000 cells/well in 100 uL medium. Four AR(+) cell lines (LnCaP, C4-2 (parental), C4-2AR-WT and C4-2AR—F876L) and one AR(−) cell line (DU-145) were studied. Compound treated cells were analyzed for cell density at 96h, using CellTiter-Glo® (CTG) reagent (Promega). […] Example 10 and IBET-151 BET had submicromolar IC50 values in the AR(+) cell lines. The inhibitors maintained potency in C4-2 cells engineered to express wild type (WT) AR receptor (C4-2-AR-WT), as well as cells engineered to express the F876L mutation (C4-2-AR-F876L) that confers resistance to androgen receptor (AR) antagonists.

C4-2AR-WT cells, AR(+) = assay: CRPC cell proliferation assay (CellTiter-Glo), C4-2AR-WT; format: cell-based; details: CTG at 96h
Method: as §1

## CNC(=O)c1ccc(N2C(=S)N(c3ccc(C#N)c(C(F)(F)F)c3)C(=O)C2(C)C)cc1F [MDV3100, reference compound]
LnCaP cells, AR(+)
  IC50: 320 nM
C4-2AR-WT cells, AR(+)
  IC50: 840 nM
